Experimental data reported in US12502428B1, “Immunotherapeutic composition for prevention of obesity, nonalcoholic fatty liver disease and hypertriglyceridemia, and methods of use and preparation thereof” (Utopia Therapeutics Pvt Ltd., priority 2025, dated 2025).
At least one peptide structure holds a part that was inferred or is arguable (an end, a ring closure or a residue). Where no end group is shown, it is not given here.

Key:
FATP1 = test: Western blot with anti-sera from the mice on liver and adipose tissue samples; format: in vivo, mice - Balb/c; settings: liver and adipose tissue samples as protein samples
high fat fed mice = test: Delayed vaccine intervention study in high fat fed mice; format: in vivo; settings: for percentage of visceral fat: control 62.5%
high-fat fed mice model [1] = test: Triglyceride colorimetric assay of organ/tissue samples; format: in vivo, mice - Balb/c; settings: Treatment group
high-fat fed mice model [2] = test: Efficacy of the vaccine in high-fat fed mice model (diet induced obesity, DIO); format: in vivo, mice - Balb/c
From the text: This model is often referred to as diet induced obesity (DIO) model.
IAEC approval: IAEC approval obtained for conducting the study; test item name: UT-GT-001; batch number: G2467-145; date of manufacture: 9 Nov.
The dosage for mice extrapolated using standard guidelines.
Formulation was freshly made just before dosing. […] Immunization of peptide is along with Freund's adjuvant by proper mixing. […] Once the drop test passed (the emulsion drop floated on water as intact), the final formulation was administered to mice with the volume of 300 μl.
Immunization and blood collection. After the acclimatization period, body weights of mice were recorded.
At every blood collection, 12 hours fasting was maintained for animals. […] Blood samples were given to the diagnostic center for different blood parameter analysis.

FATP1 peptide = test: ELISA for antibodies against FATP1 peptide in sera of vaccinated animals; format: in vivo, rats (Wistar); settings: sera of vaccinated rats
high-fat fed rat model = test: Efficacy of the vaccine in high-fat fed rat model
high fat fed chickens = test: Efficacy of the vaccine in high-fat fed chicken model; format: in vivo; settings: 100 μg antigen/bird intramuscular
chow fed chickens = test: Separate chicken study, normal diet, FATP1 peptide in alum; format: in vivo; settings: 2500 birds, vaccine group vs control group (FIG. 1B)
[3] = delayed vaccine intervention study
[4] = treated vs control group, 150 μg/rat intramuscular weekly for 7 weeks
[5] = treatment group vs control group

MRAPGAGAASVVS [vaccine, MRAPGAGAASVVS]
Western blot using sera from vaccinated mice (antibodies to FATP1 in serum) (FATP1): clear single band corresponding to the molecular weight of FATP1 | heart weight (high fat fed mice; delayed vaccine group): decrease | kidney weight (high fat fed mice; delayed vaccine group): almost no effect | liver weight (high fat fed mice; delayed vaccine group): reduction | lung weight (high fat fed mice; delayed vaccine group): increase | spleen weight (high fat fed mice; delayed vaccine group): reduction | percentage of visceral fat (high fat fed mice; delayed vaccine group (high fat diet two weeks before vaccine)): 21.6% | ALP level (high fat fed mice; [3]): significant reduction | blood cholesterol (high fat fed mice; [3]): improvements | blood glucose (high fat fed mice; [3]): improvements | blood triglycerides (high fat fed mice; [3]): improvements | percentage of visceral fat (high fat fed mice; normal vaccine group): 18.3% | TG, Adipose Tissue (high-fat fed mice model [1]; adipose tissue): 49.8 μmol/g wet weight | TG, Heart (high-fat fed mice model [1]; heart tissue): 14 μmol/g wet weight | TG, Kidney (high-fat fed mice model [1]; kidney tissue): 12.74 μmol/g wet weight | TG, Liver (high-fat fed mice model [1]; liver tissue): 20.64 μmol/g wet weight | TG, Lungs (high-fat fed mice model [1]; lung tissue): 14.8 μmol/g wet weight | TG, Spleen (high-fat fed mice model [1]; spleen tissue): 19.58 μmol/g wet weight | reduction in ALP levels (high-fat fed mice model [2]; treatment group compared to the vaccine group (so in the source)): 19% | reduction in triglyceride levels (high-fat fed mice model [2]; treatment group over time and after 14 days, 100 μg subcutaneous weekly): 61.5% | reduction in glucose levels (high-fat fed mice model [2]; treatment group, 100 μg subcutaneous weekly): 58.7% | liver weight reduced (high-fat fed mice model [2]; treatment vs control group): 9% | reduction in visceral fat (high-fat fed mice model [2]; treatment vs control group after high fat feed): 33.7% | presence of antibodies against FATP1 peptide in sera (FATP1 peptide): increases within two weeks and continues to rise in eighth week | decrease in liver enzyme dysfunction marker ALT (high-fat fed rat model; treated rats, 150 μg/rat intramuscular weekly for 7 weeks): 67% | loss in visceral fat deposition (high-fat fed rat model; treated vs control group after high fat feed): 43% | reduction in body weight (high-fat fed rat model; [4]): 22% | reduction in liver weight (high-fat fed rat model; [4]): 28% | reduction of VLDL (high-fat fed rat model; [4]): 58% | reduction in serum triglycerides (high-fat fed rat model; treated vs control group, 150 μg/rat intramuscular weekly for 7 weeks, high fat diet 8 weeks): 42% | reduction in total serum cholesterol (high-fat fed rat model; treatment vs control group, 150 μg/rat intramuscular weekly for 7 weeks): 10% | effect on cholesterol (high fat fed chickens; treated group vs control group): no significant effect | reduction in blood glucose (high fat fed chickens; treated group vs control group, feed + 20% coconut oil): 8.5% | reduction in triglycerides (high fat fed chickens; [5]): 32% | reduction of ALP (high fat fed chickens; [5]): 37% | visceral fat accumulation (chow fed chickens): drastic reduction
